Results are given in words; binding and its absence hold for the method and conditions named. Some results given as binding are weak or reduced against the parent protein; the word gives no strength.
B1: shark VNAR B8 (VNAR)
VNAR: ARVDQTPQTVTKETGESLTINCVLRDSNCALPSTYWYRKKSGSTNEENISKGGRYVETVNSGSKSFSLRINDLRPEDSGTYRCKVHGLPLDCIPARGLELNWREDVNGGGTAVTVN
B2: shark VNAR B10 (VNAR)
VNAR: ARVDQTPQTITKETGESLTINCVLRDSNCPLSSTFWYRADAGSLNEENISKGGRYVETVNSGSKSFSLRINDLTTEDSGTYRCKVAGLPLDCIPARGLELNWREDVYGGGTAVTVN
B3: shark VNAR A1 (VNAR)
VNAR: ARVDQTPQTITKETGESLTINCVPPDSNCALADTYWYRKKSGSTNEESISKGGRYVPTVNSGSKSFILRINDLRVADSGTYRCKVSCYAAAYYGQQLERLYDVYGGGTAVTVN
B4: shark VNAR A10 (VNAR)
chain: ARVDQTPQTITKETGESLTITCILRDSQCALSPTYWYHKKSGSTKPERIYKGGRYVETVNSGSKSFSLRINDLTVEDSGTFFCKVSGWYAYSCRLEPDGYYDVYGGGTVVTVN

The chains behind the UniProt entries cited, without tags or fusion partners. Where a name states a change or a piece, a line headed by the entry shows the natural chain unless it says otherwise.
UniProt P08669: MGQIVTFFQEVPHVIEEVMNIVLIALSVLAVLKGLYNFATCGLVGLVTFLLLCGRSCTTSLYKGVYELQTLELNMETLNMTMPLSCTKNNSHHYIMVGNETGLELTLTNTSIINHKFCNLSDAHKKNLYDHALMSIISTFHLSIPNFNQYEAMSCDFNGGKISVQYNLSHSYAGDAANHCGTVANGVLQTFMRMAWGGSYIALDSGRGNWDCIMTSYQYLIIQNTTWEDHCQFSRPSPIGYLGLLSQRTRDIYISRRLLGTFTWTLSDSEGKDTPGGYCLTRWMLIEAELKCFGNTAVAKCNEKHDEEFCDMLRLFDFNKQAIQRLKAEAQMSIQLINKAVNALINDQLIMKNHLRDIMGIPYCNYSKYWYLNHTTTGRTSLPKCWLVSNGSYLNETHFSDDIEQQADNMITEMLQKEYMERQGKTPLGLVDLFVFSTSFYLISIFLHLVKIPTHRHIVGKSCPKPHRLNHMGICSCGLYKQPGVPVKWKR

Molecular target: LASV GP1 subunit protein (Lassa virus) (UniProt P08669)
Test: BLI, GP1 subunit protein

| Binder | binding |
| --- | --- |
| B1 | binds |
| B2 | binds |
| B3 | binds |
| B4 | binds |

Source: patent publication US20240218055A1 (US Dept. of Health and Human Services, published 2024)
